Values from PubChem BioAssay AID743121 (NCATS, 2013).
Purpose: 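Knock-downs that sensitise breast cancer cells to camptothecin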 (primary screen). System: MDA-MB-231 cells, a human breast cancer line. Reagents: single siRNA against human genes, 20 nM siRNA (0.8 pmol per well). Time to read-out: 120 h (drug added 48 h after transfection, read 72 h later). Conditions: camptothecin 20 nM (about EC30) for 72 h; vehicle 0.1% DMSO in parallel plates. Measurement: 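CellTiter-Glo ATP signal, scaled to control siRNA as percent viability; sensitisation given as log2 of untreated divided by camptothecin-treated viability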. Reading the numbers: log2 vehicle/camptothecin viability: higher = stronger sensitisation to camptothecin; viability with camptothecin: higher = more viable cells. Active means: 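Active genes have an RSA gene-level p-value below 0.001, computed from the ratios of their separate siRNAs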.
This is an unselected part of about 26,000 reagents tested. 167 of them (0.63%) count as active. 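Calls are per gene from RSA p-values that are not deposited; an individual active-marked siRNA can sensitise only weakly.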 The numbers tell different reagents against one gene apart. Not all columns of the deposit are shown.

Knock-down of SCARB2 (scavenger receptor class B member 2) #1 gave: log2 vehicle/camptothecin viability 0.14; viability with camptothecin (% of control) = 85.4; inactive. Against SCARB2 (scavenger receptor class B member 2) #2, the entry reads log2 vehicle/camptothecin viability -0.399; viability with camptothecin (% of control) = 67.1; inactive. After knock-down of SCARB2 (scavenger receptor class B member 2) #3, the screen gave log2 vehicle/camptothecin viability -0.556; viability with camptothecin (% of control) = 105; inactive. With knock-down of SCARB2 (scavenger receptor class B member 2) #4 the results were log2 vehicle/camptothecin viability 0.7; viability with camptothecin (% of control) = 43.4; inactive. For APOC3 (apolipoprotein C3) #1 the deposit lists log2 vehicle/camptothecin viability -0.237; viability with camptothecin (% of control) = 76.2; inactive. After knock-down of APOC3 (apolipoprotein C3) #2, the screen gave log2 vehicle/camptothecin viability -0.14; viability with camptothecin (% of control) = 43.5; inactive.

After knock-down of APOC3 (apolipoprotein C3) #3 the results were log2 vehicle/camptothecin viability -0.395; viability with camptothecin (% of control) = 22.3; inactive. APOC3 (apolipoprotein C3) #4 scored log2 vehicle/camptothecin viability -0.161; viability with camptothecin (% of control) = 85.8; inactive. After knock-down of RPS19 (ribosomal protein S19) #1, the screen gave log2 vehicle/camptothecin viability 1.53; viability with camptothecin (% of control) = 20.5; inactive. Against RPS19 (ribosomal protein S19) #2, the values are log2 vehicle/camptothecin viability -0.0561; viability with camptothecin (% of control) = 79.9; inactive. RPS19 (ribosomal protein S19) #3 showed log2 vehicle/camptothecin viability -0.0766; viability with camptothecin (% of control) = 99.8; inactive. Depletion of CEBPG (CCAAT enhancer binding protein gamma) #1 came out at: log2 vehicle/camptothecin viability 0.0986; viability with camptothecin (% of control) = 88.5; inactive.

After knock-down of CEBPG (CCAAT enhancer binding protein gamma) #2, the record shows log2 vehicle/camptothecin viability -0.17; viability with camptothecin (% of control) = 78.1; inactive. CEBPG (CCAAT enhancer binding protein gamma) #3 showed log2 vehicle/camptothecin viability -0.248; viability with camptothecin (% of control) = 102; inactive. Silencing of CEBPG (CCAAT enhancer binding protein gamma) #4 resulted in: log2 vehicle/camptothecin viability 0.641; viability with camptothecin (% of control) = 38.6; inactive. JUN (Jun proto-oncogene, AP-1 transcription factor subunit) #1 showed log2 vehicle/camptothecin viability -0.246; viability with camptothecin (% of control) = 69.8; inactive. After knock-down of JUN (Jun proto-oncogene, AP-1 transcription factor subunit) #2 the results were log2 vehicle/camptothecin viability 0.537; viability with camptothecin (% of control) = 18.1; inactive. JUN (Jun proto-oncogene, AP-1 transcription factor subunit) #3 showed log2 vehicle/camptothecin viability -0.588; viability with camptothecin (% of control) = 30.8; inactive.

Against JUN (Jun proto-oncogene, AP-1 transcription factor subunit) #4 the deposit lists log2 vehicle/camptothecin viability -0.395; viability with camptothecin (% of control) = 79.3; inactive. Depletion of GRIPAP1 (GRIP1 associated protein 1) #1 came out at: log2 vehicle/camptothecin viability -0.283; viability with camptothecin (% of control) = 67.1; inactive. GRIPAP1 (GRIP1 associated protein 1) #2 gave log2 vehicle/camptothecin viability 0.183; viability with camptothecin (% of control) = 84.1; inactive. GRIPAP1 (GRIP1 associated protein 1) #3 showed log2 vehicle/camptothecin viability -0.14; viability with camptothecin (% of control) = 93.6; inactive. Knock-down of GRIPAP1 (GRIP1 associated protein 1) #4 gave: log2 vehicle/camptothecin viability 1.6; viability with camptothecin (% of control) = 17; inactive. With knock-down of KCNQ5 (potassium voltage-gated channel subfamily Q member 5) #1, the record shows log2 vehicle/camptothecin viability -0.212; viability with camptothecin (% of control) = 68.1; inactive.

For KCNQ5 (potassium voltage-gated channel subfamily Q member 5) #2, the entry reads log2 vehicle/camptothecin viability -0.025; viability with camptothecin (% of control) = 86.7; inactive. Against KCNQ5 (potassium voltage-gated channel subfamily Q member 5) #3, the values are log2 vehicle/camptothecin viability -0.0607; viability with camptothecin (% of control) = 117; inactive. Knock-down of KCNQ5 (potassium voltage-gated channel subfamily Q member 5) #4 resulted in: log2 vehicle/camptothecin viability 0.0136; viability with camptothecin (% of control) = 70.1; inactive. For ASNS (asparagine synthetase (glutamine-hydrolyzing)) #1, the values are log2 vehicle/camptothecin viability 0.0571; viability with camptothecin (% of control) = 93; inactive. Against ASNS (asparagine synthetase (glutamine-hydrolyzing)) #2, the entry reads log2 vehicle/camptothecin viability -0.3; viability with camptothecin (% of control) = 126; inactive. For ASNS (asparagine synthetase (glutamine-hydrolyzing)) #3 the deposit lists log2 vehicle/camptothecin viability 0.0419; viability with camptothecin (% of control) = 55.9; inactive.

After knock-down of ASNS (asparagine synthetase (glutamine-hydrolyzing)) #4, the screen gave log2 vehicle/camptothecin viability -0.19; viability with camptothecin (% of control) = 112; inactive. Silencing of NOTCH3 (notch receptor 3) #1 resulted in: log2 vehicle/camptothecin viability 0.0116; viability with camptothecin (% of control) = 72.7; inactive. NOTCH3 (notch receptor 3) #2 showed log2 vehicle/camptothecin viability -0.652; viability with camptothecin (% of control) = 56.9; inactive. After knock-down of NOTCH3 (notch receptor 3) #3 the results were log2 vehicle/camptothecin viability -0.046; viability with camptothecin (% of control) = 82.7; inactive. With knock-down of NOTCH3 (notch receptor 3) #4 the results were log2 vehicle/camptothecin viability -0.595; viability with camptothecin (% of control) = 97.5; inactive. STK26 (serine/threonine kinase 26) #1 gave log2 vehicle/camptothecin viability -0.3; viability with camptothecin (% of control) = 99.8; inactive.

Knock-down of STK26 (serine/threonine kinase 26) #2 resulted in: log2 vehicle/camptothecin viability -0.135; viability with camptothecin (% of control) = 123; inactive. Against STK26 (serine/threonine kinase 26) #3, the entry reads log2 vehicle/camptothecin viability -0.159; viability with camptothecin (% of control) = 98.7; inactive. Knock-down of STK26 (serine/threonine kinase 26) #4 resulted in: log2 vehicle/camptothecin viability 1.08; viability with camptothecin (% of control) = 37.6; inactive. After knock-down of NFATC4 (nuclear factor of activated T cells 4) #1, the screen gave log2 vehicle/camptothecin viability -0.582; viability with camptothecin (% of control) = 99.9; inactive. NFATC4 (nuclear factor of activated T cells 4) #2 gave log2 vehicle/camptothecin viability -0.204; viability with camptothecin (% of control) = 118; inactive. After knock-down of NFATC4 (nuclear factor of activated T cells 4) #3 the results were log2 vehicle/camptothecin viability -0.284; viability with camptothecin (% of control) = 89.2; inactive.

NFATC4 (nuclear factor of activated T cells 4) #4 gave log2 vehicle/camptothecin viability -0.111; viability with camptothecin (% of control) = 70.6; inactive. With knock-down of HGD (homogentisate 1,2-dioxygenase) #1 the results were log2 vehicle/camptothecin viability -0.0659; viability with camptothecin (% of control) = 28.2; inactive. Silencing of HGD (homogentisate 1,2-dioxygenase) #2 resulted in: log2 vehicle/camptothecin viability -0.39; viability with camptothecin (% of control) = 81.6; inactive. Depletion of HGD (homogentisate 1,2-dioxygenase) #3 gave: log2 vehicle/camptothecin viability 1.4; viability with camptothecin (% of control) = 5.26; inactive. HGD (homogentisate 1,2-dioxygenase) #4 scored log2 vehicle/camptothecin viability -0.174; viability with camptothecin (% of control) = 84.8; inactive.

Reformatted: results already given.
gene knocked down,siRNA no.,log2 vehicle/camptothecin viability,viability with camptothecin (% of control),Outcome
ASNS (asparagine synthetase (glutamine-hydrolyzing)),3,0.0419,55.9,inactive
ASNS (asparagine synthetase (glutamine-hydrolyzing)),4,-0.19,112,inactive
NOTCH3 (notch receptor 3),1,0.0116,72.7,inactive
